Measurements: PMC7801434
These are yes or no findings as the source states them, for the method shown. Binding seen in cells or lysates may run through a third protein. Binding calls can cover weak binding; strength is not graded here.

The chains behind the UniProt entries cited, without tags or fusion partners. Where a name states a change or a piece, a line headed by the entry shows the natural chain unless it says otherwise.
UniProt Q99538: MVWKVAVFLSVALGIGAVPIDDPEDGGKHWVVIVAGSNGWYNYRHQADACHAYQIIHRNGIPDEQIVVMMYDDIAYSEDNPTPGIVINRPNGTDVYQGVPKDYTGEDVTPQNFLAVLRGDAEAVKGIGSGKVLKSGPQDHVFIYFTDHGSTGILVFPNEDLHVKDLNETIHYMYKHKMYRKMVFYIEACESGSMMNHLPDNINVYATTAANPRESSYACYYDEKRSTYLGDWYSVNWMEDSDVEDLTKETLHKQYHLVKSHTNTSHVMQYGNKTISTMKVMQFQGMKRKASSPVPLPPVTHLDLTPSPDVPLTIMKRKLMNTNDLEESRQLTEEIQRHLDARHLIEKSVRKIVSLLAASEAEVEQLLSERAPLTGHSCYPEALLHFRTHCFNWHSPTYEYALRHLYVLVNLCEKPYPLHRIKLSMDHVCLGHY
UniProt P11142: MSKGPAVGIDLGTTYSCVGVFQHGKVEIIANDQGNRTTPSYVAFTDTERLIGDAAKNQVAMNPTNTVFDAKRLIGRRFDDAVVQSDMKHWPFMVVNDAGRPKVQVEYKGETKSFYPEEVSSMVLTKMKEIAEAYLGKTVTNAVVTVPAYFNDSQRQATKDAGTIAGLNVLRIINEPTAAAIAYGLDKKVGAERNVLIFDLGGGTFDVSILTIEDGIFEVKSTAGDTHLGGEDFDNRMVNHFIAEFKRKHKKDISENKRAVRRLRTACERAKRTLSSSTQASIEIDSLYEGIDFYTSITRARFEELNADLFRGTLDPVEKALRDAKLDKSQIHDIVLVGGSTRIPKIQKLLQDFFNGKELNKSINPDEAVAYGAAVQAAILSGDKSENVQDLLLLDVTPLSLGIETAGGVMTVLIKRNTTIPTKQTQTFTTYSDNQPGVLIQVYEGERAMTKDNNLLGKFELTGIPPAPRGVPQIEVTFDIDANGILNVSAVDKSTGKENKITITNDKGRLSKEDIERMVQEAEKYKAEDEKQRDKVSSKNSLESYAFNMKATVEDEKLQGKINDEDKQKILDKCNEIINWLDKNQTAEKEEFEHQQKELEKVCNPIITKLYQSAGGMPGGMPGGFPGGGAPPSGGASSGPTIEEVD

Molecular target: legumain (human (endogenous in HK-2)) (UniProt Q99538)
Assay: co-IP; HK-2 cell lysate incubated with an antibody against legumain (or control IgG) at 4 °C overnight, captured on protein G-sepharose, washed with PBS five times; western blotting for legumain, GPX4, Lamp-2a, HSC70 and HSP90; cells untreated, or under normoxic or hypoxic conditions for 24 h (interactions increased by hypoxia)

binding: binds
Substance: HSC70 (from UniProt P11142 1-646)
